AC50 data for 55 compounds are collected here from PubChem BioAssay AID1487 (National Center for Advancing Translational Sciences (NCATS), 2009).

The list shows a part of the results. These are further read-outs of the screen, such as a control signal, another cell line or another target. No call is given for them. Compounds called inactive in the main read-out are mostly missing here. The note in brackets gives the kind of curve behind each potency; many fits are weak.

This assay is described as follows: qHTS Assay for Modulators of Lamin A Splicing. The conditions noted are these: HeLa LMNA splicing GFP/RFP minigene ratio, 48 h. An outline of the steps:
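S3 HeLa stable clones carrying a lamin A-EGFP splicing minigene plus DsRed2 were seeded at 600 cells/well in Opti-MEM with 2% FBS, pin-dosed and incubated 48 h at 37°C. Acumen cytometry (488 nm) gave the GFP/RFP total-intensity ratio.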

Where [1] appears, read: measured here: GFP splicing reporter channel.
Where [2] appears, read: measured here: RFP viability control channel.

One may read the AC50 as the midpoint of the concentration-response curve, whichever way the signal moves.

Regarding `CC(Cc1cccs1)NC(=S)Nc1ccc(Cl)cc1` (centres undefined), the AC50 is 15.8 µM [rising, partial curve] under setting [1] and 25.1 µM [rising, partial curve] under setting [2]. For the compound `COc1ccc(C(=O)Nc2ccc(S(=O)(=O)Nc3cc(C)nc(C)n3)cc2)c(OC)c1`, the concentration at half-maximal activity (AC50) is 14.1 µM [rising, partial curve] under setting [1] and 25.1 µM [rising, single point] under setting [2]. On to `CN(C)c1ccc(/C=C/C(=O)c2ccc(C(C)(C)C)cc2)cc1[N+](=O)[O-]`, for which the AC50 runs as follows: under setting [1], 11.2 µM [rising, single point]; under setting [2], 14.1 µM [rising, single point]. `CC(=O)Nc1ccc(S(=O)(=O)Oc2ccc(C(=S)N3CCCCC3)cc2)cc1`: the AC50 is, setting by setting: under setting [1], 1 µM [rising, full curve]; under setting [2], 6.31 µM [rising, partial curve]. In the case of `Cn1cccc1-c1nc2ccccc2n1Cc1ccccc1`, the AC50 reads like this: under setting [1], 25.1 µM [rising, single point]; under setting [2], 17.8 µM [rising, single point].

As for `COCCNc1nc2c(c(=O)n(C)c(=O)n2C)n1Cc1cccc(C(F)(F)F)c1`, the AC50 under setting [2] is 12.6 µM [rising, single point]. On to `COc1ccc(OC)c(NC(=O)CN(C)S(=O)(=O)c2ccc3nc(C)sc3c2)c1`, for which the AC50 was 11.2 µM [rising, partial curve] under setting [1] and 10 µM [rising, partial curve] under setting [2]. Consider `COc1cc(CC(=O)Nc2ccc(Cl)c(C(F)(F)F)c2)cc(OC)c1OC`, for which, under setting [1], the AC50 is 8.91 µM [rising, partial curve].

In the case of `O=C(O)c1cc(Sc2ccc(Br)cc2)nc2ccccc12`, the concentration at half-maximal activity (AC50) under setting [1] is 0.355 µM [falling, full curve]. Take `CCC1=Nc2cc(C(=O)NCc3ccco3)ccc2Sc2ccc(Cl)cc21`: the AC50 under setting [2] was 2.24 µM [rising, full curve].

For the compound `O=C(CCCN1C(=O)/C(=C/c2cccs2)SC1=S)Nc1ccc(O)c(C(=O)O)c1`, the AC50 under setting [1] was 0.02 µM [rising, full curve, poor fit]. Same read-out and setting: in the case of `Nc1c(C(=O)c2ccccc2)sc(Nc2ccccc2)c1S(=O)(=O)c1ccccc1` it was 6.31 µM [rising, partial curve, poor fit]. Consider `CC1CN=C(N(C(=O)Nc2ccccc2)c2ccc(S(=O)(=O)N3CCOCC3)cc2)S1` (centres undefined), for which the concentration at half-maximal activity (AC50) by setting is: under setting [1], 5.01 µM [rising, partial curve, poor fit]; under setting [2], 20 µM [rising, single point]. Turning to `COc1ccc(CNC(=O)CN(CCC(C)C)S(=O)(=O)c2ccc3c(c2)OCCO3)cc1`, the concentration at half-maximal activity (AC50) under setting [2] was 35.5 µM [rising, single point].

As for `O=C(c1cc(COc2c(F)cccc2F)on1)N1CCc2ccccc2C1`, the concentration at half-maximal activity (AC50) under setting [2] is 35.5 µM [falling, partial curve, poor fit]. As for `Cc1ccc(NC(=S)N(CCCN2CCOCC2)Cc2cccnc2)cc1C`, under setting [1], the AC50 is 12.6 µM [falling, partial curve].

Take `COc1ccc(CCN(C)C(=O)CSc2nccn2C)cc1OC`: under setting [2], the AC50 was 3.55 µM [rising, single point]. Turning to `CCOC(=O)/C(=C/C=C1\Sc2cc(OCC)c(OCC)cc2N1CC)C(C)=O`, the half-maximal activity concentration (AC50) under setting [1] is 22.4 µM [falling, partial curve] and the AC50 under setting [2] was 10 µM [falling, partial curve]. With `CCOC(=O)N1CCC(=NNc2ccnc3cc(Cl)ccc23)CC1`, the half-maximal activity concentration (AC50) under setting [1] was 35.5 µM [falling, partial curve]. Same read-out and setting: the figure for `O=C(Cc1ccccc1)Nc1nnc(SCC(=O)NC2CCCC2)s1` is 0.00398 µM [rising, full curve, poor fit]. With `Cc1cccc(C(=O)N2CCC(c3nc4ccccc4s3)CC2)c1`, the AC50 was 0.562 µM [falling, partial curve] under setting [1] and 0.562 µM [falling, full curve, poor fit] under setting [2]. With `COc1cc(NC(=O)N2CCC3(CC2)Nc2ccccc2-n2cccc23)cc(OC)c1OC`, the concentration at half-maximal activity (AC50) is 20 µM [rising, partial curve, poor fit] under setting [1] and 20 µM [rising, partial curve, poor fit] under setting [2].

As to `C=C(C)CNC(=S)N/N=C/c1ccc([N+](=O)[O-])cc1`, the AC50 under setting [2] was 0.0224 µM [falling, full curve, poor fit]. In the case of `Cc1nsc(Nc2ccc([N+](=O)[O-])cc2)c1C#N`, the AC50 by setting is: under setting [1], 3.98 µM [falling, partial curve]; under setting [2], 1.12 µM [falling, full curve]. In the case of `Cc1noc(C)c1COc1cccc(C(=O)NCCc2c[nH]c3ccccc23)c1`, the half-maximal activity concentration (AC50) under setting [2] is 11.2 µM [rising, partial curve]. Still for that read-out and setting: in the case of `CCOC(=O)C(=O)Nc1nnc2n1CCS2` it was 0.0224 µM [falling, full curve, poor fit]. Turning to `CCN(CC)C(=O)c1ccc(CS(=O)(=O)c2ccc(OC)cc2)o1`, under setting [2], the AC50 is 35.5 µM [rising, single point]. Turning to `CN(C)C(=O)c1ccc(-c2ccc3ncnc(NCc4cccs4)c3c2)cc1`, the AC50 under setting [1] was 20 µM [falling, partial curve]. Take `Cc1nc(N2CCCC2)ncc1C(=O)N1CCN(c2ccc(Cl)cc2)CC1`: the AC50 under setting [1] was 15.8 µM [falling, partial curve, poor fit].

For `CCOC(=O)C1=C(N2CCCCC2)c2cc3c(n2C1=O)CCCC3`, the AC50 under setting [1] is 8.91 µM [rising, partial curve] and the AC50 under setting [2] was 11.2 µM [rising, single point]. In the case of `Cc1nc2c(C(=O)NCc3ccccc3Cl)cnn2c(C)c1Cc1ccccc1`, the half-maximal activity concentration (AC50) under setting [2] was 0.0141 µM [rising, full curve, poor fit]. For the compound `Cc1c(C(=O)OCC(=O)NCCN2C(=O)CSC2=O)oc2c1ccc1ccccc12`, the AC50 under setting [1] was 14.1 µM [rising, single point] and the AC50 under setting [2] is 31.6 µM [rising, single point]. Turning to `CC(C)c1cc(C(=O)NNC(=S)NCc2ccco2)c(O)c(C(C)C)c1`, the concentration at half-maximal activity (AC50) under setting [2] is 8.91 µM [rising, partial curve].

Consider `Cc1ccc(Cl)cc1N1CCN(C(=O)CCS(=O)(=O)c2cccc3nonc23)CC1`, for which the half-maximal activity concentration (AC50) under setting [2] is 17.8 µM [rising, single point]. For `CC12CC(NC(=O)N1c1ccc(C(=O)N3CCN(c4ccc(F)cc4)CC3)cc1)c1ccccc1O2` (centres undefined), the concentration at half-maximal activity (AC50) under setting [2] is 10 µM [rising, partial curve, poor fit]. Regarding `Cc1cccc(OCCNC(=O)c2cccc(Oc3ccc(C(F)(F)F)cc3[N+](=O)[O-])c2)c1`, the AC50 under setting [1] was 12.6 µM [rising, partial curve] and the half-maximal activity concentration (AC50) under setting [2] is 25.1 µM [rising, partial curve]. For the compound `O=C(NCCO)c1ccc(CSc2nc3ccccc3[nH]2)cc1`, under setting [2], the AC50 is 35.5 µM [rising, single point].

For the compound `CC(C)(C)C(=O)NCCN1C(=O)S/C(=C\c2ccc([N+](=O)[O-])cc2)C1=O`, the concentration at half-maximal activity (AC50) under setting [2] was 22.4 µM [rising, single point].

Consider `COc1ccc(Cl)c(Cn2c(NCC(C)O)nc3c2c(=O)n(C)c(=O)n3C)c1` (centres undefined), for which the half-maximal activity concentration (AC50) was 28.2 µM [rising, single point] under setting [1] and 31.6 µM [rising, single point] under setting [2]. For the compound `COC(=O)C1=C(C)N(C)C(=O)NC1c1ccc(O)c(Cl)c1` (centres undefined), the AC50 under setting [2] is 1.26 µM [falling, full curve]. With `CCOc1cc(C)c(S(=O)(=O)NC2CCCCC2)cc1C`, under setting [2], the AC50 is 20 µM [rising, single point].

Consider `COCCNC(=O)CSc1nc2cc3c(cc2c(=O)n1Cc1ccc(C(=O)NCCc2ccc(OC)c(OC)c2)cc1)OCO3`, for which the AC50 under setting [1] was 15.8 µM [falling, single point] and the AC50 under setting [2] is 35.5 µM [falling, single point]. For `CC1C/C(=N\Nc2ccc(S(N)(=O)=O)cc2[N+](=O)[O-])CC(C)(C)C1` (centres undefined), the concentration at half-maximal activity (AC50) under setting [2] was 35.5 µM [rising, single point]. Regarding `CCN(CC)S(=O)(=O)c1ccc(C)c(NC(=S)Nc2cccc(S(=O)(=O)N3CCCCCC3)c2)c1`, under setting [2], the AC50 was 14.1 µM [rising, partial curve]. As to `Brc1cccc(/C=N/Nc2nc(N3CCCCC3)nc(N3CCCCC3)n2)c1`, the concentration at half-maximal activity (AC50) under setting [1] was 14.1 µM [rising, partial curve]. `O=C(Nc1nc(-c2cccs2)c(C(=O)C(F)(F)F)s1)c1ccco1`: the AC50 under setting [2] was 0.00794 µM [falling, full curve].

In the case of `Cc1ccc(C(=O)n2c(-c3ccccc3)cnc2SCC(=O)Nc2ccc(C)cc2C)cc1`, the AC50 is, setting by setting: under setting [1], 22.4 µM [rising, single point]; under setting [2], 20 µM [rising, partial curve, poor fit]. As to `Cc1ccc(C(=O)/C=C/Nc2ccccc2C(N)=O)o1`, the AC50 under setting [1] was 35.5 µM [rising, single point].

On to `O=C(COc1ccc2ccccc2c1)NNC(=O)Cc1cccc2ccccc12`, for which the AC50 under setting [2] was 20 µM [falling, single point]. Regarding `COc1ccc(C(=O)NCCNc2ccccc2[N+](=O)[O-])cc1`, the AC50 is, setting by setting: under setting [1], 8.91 µM [falling, partial curve, poor fit]; under setting [2], 0.158 µM [falling, full curve, poor fit].

`O=C1Nc2c(Br)cc(Br)c3cccc1c23`: the AC50 under setting [1] was 0.00631 µM [falling, full curve, poor fit].

Turning to `CCc1nc(Nc2ccc3c(c2)OCCO3)c2oc3ccccc3c2n1`, the AC50 was 35.5 µM [rising, single point] under setting [1] and 35.5 µM [rising, single point] under setting [2].

For the compound `CC1=NN(c2ccccc2)C(=O)/C1=C/C=C/c1ccccc1`, under setting [2], the AC50 is 17.8 µM [rising, partial curve, poor fit]. In the case of `Cc1nnc(SCC(=O)NC2CCS(=O)(=O)C2)n1Cc1ccccc1` (centres undefined), the half-maximal activity concentration (AC50) under setting [1] is 0.0501 µM [falling, full curve, poor fit]. For `CN1/C(=C\C(=O)C[n+]2ccc3ccccc3c2)C(C)(C)c2ccccc21`, the half-maximal activity concentration (AC50) under setting [2] is 5.62 µM [rising, single point].
